The assay has as its system P388 leukemia ip, CD2F1 mice, survival T/C. Put plainly: NCI In Vivo Anticancer Drug Screen. Data for tumor model P388 Leukemia (intraperitoneal) in CD2F1 (CDF1) mice. Particulars: T/C endpoint: median survival time, higher T/C = longer survival.
Setting [1] is: dose: 200.0 mg/kg/injection, schedule: Q01DX005 (ip), vehicle: saline with Tween-80.
Where [2] appears, read: dose: 100.0 mg/kg/injection, schedule: Q01DX005 (ip), vehicle: saline with Tween-80.
The mark [3] stands for this setting: dose: 50.0 mg/kg/injection, schedule: Q01DX009 (ip), vehicle: saline with Tween-80.
The mark [4] stands for this setting: dose: 100.0 mg/kg/injection, schedule: Q01DX009 (ip), vehicle: saline with Tween-80.
[5] abbreviates: dose: 200.0 mg/kg/injection, schedule: Q01DX009 (ip), vehicle: saline with Tween-80.
Where [6] appears, read: dose: 200.0 mg/kg/injection, schedule: Q01DX009 (ip), vehicle: other.
[7] abbreviates: dose: 240.0 mg/kg/injection, schedule: Q01DX005 (ip), vehicle: saline.
Where [8] appears, read: dose: 25.0 mg/kg/injection, schedule: Q01DX009 (ip), vehicle: Klucel (hydroxypropylcellulose) (HPC).
[9] abbreviates: dose: 200.0 mg/kg/injection, schedule: Q01DX009 (ip), vehicle: saline.

The list does not hold the whole screen: it is rich in T/C values a quarter to a half above the control, in often repeated tests (any T/C) and in doses without a T/C. Other doses and runs of a compound stand elsewhere. T/C gives the treated animals as a percentage of the vehicle group. Some entries give survivors of the animals treated and no T/C: the source holds a T/C of zero for them, seemingly a mark for toxic or unscored doses. Some survivor counts are full or nearly so, which does not show that the dose was tolerated: survival well below the control is almost never listed, so the zero probably covers shortened survival too. Survivors were counted at the toxicity check, usually on the fifth day, unless a day is given; later deaths do not show. Schedule codes are those of the source, read here as Q, the interval in days (D) or hours (H), X, the number of doses. Some entries were tested several times; their values stand side by side, smallest first. For survival time, this PubChem deposit counts one and a half times the control or more as active, and values a quarter to a half above the control carry no call in these data; other NCI protocols may use other cut-offs. Some T/C values are followed by the survivors on the day toxicity was checked, most often the fifth; without a count, all were alive then.

As for `COc1ccc2c(c1)CCn1c(C)c(COC(=O)NC3CCCCC3)c(COC(=O)NC3CCCCC3)c1-2`, the T/C was 137 % of control (dose: 6.25 mg/kg/injection, schedule: Q01DX009 (ip), vehicle: distilled water + Tween-80); 134 and 144 % of control (dose: 12.5 mg/kg/injection, schedule: Q01DX009 (ip), vehicle: distilled water + Tween-80); 137 and 143 % of control (dose: 25.0 mg/kg/injection, schedule: Q01DX009 (ip), vehicle: distilled water + Tween-80). For the same compound, the survivor count is, setting by setting: (dose: 100.0 mg/kg/injection, schedule: Q01DX009 (ip), vehicle: distilled water + Tween-80) 6 of 6; (dose: 200.0 mg/kg/injection, schedule: Q01DX009 (ip), vehicle: distilled water + Tween-80) 3 of 6.

For `N#CSCc1cc(Cl)c(Cl)cc1Cl`, the survivor count is, setting by setting: (dose: 200.0 mg/kg/injection, schedule: Q04DX002 (ip), vehicle: Klucel (hydroxypropylcellulose) (HPC)) 1 of 6; (dose: 400.0 mg/kg/injection, schedule: Q04DX002 (ip), vehicle: Klucel (hydroxypropylcellulose) (HPC)) 0 of 6.

With `Cc1cc(C)n(-c2ccc(-c3cc(=O)c4ccccc4o3)cc2)n1`, the survivor count under setting [1] is recorded as 6 of 6.

Consider `CCNC(=O)OCc1c(C)nc2n1CCS2`, for which the survivor count (dose: 200.0 mg/kg/injection, schedule: Q01DX005 (ip), vehicle: Klucel (hydroxypropylcellulose) (HPC)) is 1 of 6.

On to `O=C1C2=C(OCO2)C(=O)C2=C1OCO2`, for which the survivor count (dose: 60.0 mg/kg/injection, schedule: Q01DX005 (ip), vehicle: saline with Tween-80) is listed as 5 of 6; the survivor count (dose: 120.0 mg/kg/injection, schedule: Q01DX005 (ip), vehicle: saline with Tween-80) was 0 of 6; the survivor count (dose: 240.0 mg/kg/injection, schedule: Q01DX005 (ip), vehicle: saline with Tween-80) is 0 of 6.

Regarding `CC1C2CCC(C2)C1CNCC1C2CCC(C2)C1C` (configuration not stated), the survivor count by setting is: under setting [2], 0 of 5; under setting [1], 0 of 5.

Take `NC(=O)c1ccc(N)nc1`: the survivor count by setting is: (dose: 5.0 mg/kg/injection, schedule: Q01DX009 (ip), vehicle: saline with Tween-80) 5 of 6; (dose: 10.0 mg/kg/injection, schedule: Q01DX009 (ip), vehicle: saline with Tween-80) 4 of 6; (dose: 12.5 mg/kg/injection, schedule: Q01DX009 (ip), vehicle: saline with Tween-80) 6 of 6; (dose: 20.0 mg/kg/injection, schedule: Q01DX009 (ip), vehicle: saline with Tween-80) 2 of 6; (dose: 25.0 mg/kg/injection, schedule: Q01DX009 (ip), vehicle: saline with Tween-80) 6 of 6; (dose: 25.0 mg/kg/injection, schedule: Q04DX003 (ip), vehicle: saline with Tween-80) 6 of 6. Also, the survivor count by setting is: under setting [3], 2 of 6; (dose: 50.0 mg/kg/injection, schedule: Q04DX003 (ip), vehicle: saline with Tween-80) 6 of 6; under setting [4], 0 of 6; (dose: 100.0 mg/kg/injection, schedule: Q04DX003 (ip), vehicle: saline with Tween-80) 3 of 6; under setting [5], 0 of 6; (dose: 200.0 mg/kg/injection, schedule: Q04DX003 (ip), vehicle: saline with Tween-80) 0 of 6. Further, the T/C (dose: 12.5 mg/kg/injection, schedule: Q04DX003 (ip), vehicle: saline with Tween-80) was 127 % of control.

Consider `CC(=O)N(CCCN1C(=O)c2ccccc2C1=O)c1ccc2c(c1)c(-c1ccccc1)nc1cc([N+](=O)[O-])ccc12`, for which the survivor count is, setting by setting: (dose: 12.5 mg/kg/injection, schedule: Q01DX009 (ip), vehicle: other) 6 of 6; (dose: 25.0 mg/kg/injection, schedule: Q01DX009 (ip), vehicle: other) 5 of 6 and 6 of 6; under setting [6], 5 of 6.

On to `CCCCCCCCCCCCCCCCSC1=CC(=O)C(OC)=C(OC)C1=O`, for which the survivor count (dose: 4.0 mg/kg/injection, schedule: Q01DX009 (ip), vehicle: Klucel (hydroxypropylcellulose) (HPC)) is listed as 6 of 6.

As for `Nc1c(C(=O)O)ccc2c1C(=O)c1ccccc1C2=O`, the survivor count is 0 of 5 under setting [2] and 0 of 5 under setting [1].

As to `CSCCCCN=[N+]=[N-]`, the survivor count under setting [7] is reported as 0 of 6.

As for `COc1cc2ccc3c[n+]4ccccc4cc3c2cc1OC`, under setting [8], the T/C was 130 % of control.

With `CCCOC(=O)/C=C(\Cl)C(=O)OCCC`, the survivor count was 3 of 6 under setting [3], 0 of 6 under setting [4] and 0 of 6 under setting [5].

For the compound `CC(=O)[O][Pb]([O]C(C)=O)([c]1ccccc1)[c]1ccccc1`, the T/C is 126 % of control [5 of 6 alive] (dose: 26.6 mg/kg/injection, schedule: Q01DX009 (ip), vehicle: saline with Tween-80); 140 % of control (dose: 60.0 mg/kg/injection, schedule: Q01DX009 (ip), vehicle: saline with Tween-80); 131 % of control [5 of 6 alive] (dose: 100.0 mg/kg/injection, schedule: Q01DX009 (ip), vehicle: Klucel (hydroxypropylcellulose) (HPC)).

Consider `CC1=C(C#N)C(C)(CCl)C(C#N)=C(C)N1C`, for which the survivor count is, setting by setting: under setting [6], 0 of 6; (dose: 400.0 mg/kg/injection, schedule: Q01DX009 (ip), vehicle: other) 0 of 6.

In the case of `CC(=O)Nc1nccs1.CC(=O)Nc1nccs1.[Cl][Pt][Cl]`, where the note is “dose: 400.0 mg/kg/injection, schedule: Q04DX002 (ip), vehicle: saline with Tween-80”, the survivor count is 1 of 6.

Regarding `CCOC(=O)c1ccc(N=C/C(Cl)=C(/Cl)C(=O)O)cc1`, the survivor count by setting is: under setting [8], 5 of 6; (dose: 50.0 mg/kg/injection, schedule: Q01DX009 (ip), vehicle: Klucel (hydroxypropylcellulose) (HPC)) 2 of 6; (dose: 50.0 mg/kg/injection, schedule: Q01DX009 (ip), vehicle: other) 3 of 6; (dose: 100.0 mg/kg/injection, schedule: Q01DX009 (ip), vehicle: other) 0 of 6; under setting [6], 0 of 6.

In the case of `[Cl][Eu][Cl]`, the survivor count under setting [9] was 5 of 6 and the survivor count (dose: 400.0 mg/kg/injection, schedule: Q01DX009 (ip), vehicle: saline) is 0 of 6.

Turning to `CN1CCN(N=Nc2ccccc2Cl)CC1`, the survivor count was 6 of 6 (dose: 100.0 mg/kg/injection, schedule: Q01DX009 (ip), vehicle: saline) and 6 of 6 under setting [9].

For `CC1CCC2(CC1)CCN(CCCN(C)C)CC2`, the survivor count under setting [9] is given as 3 of 6.

`Cc1cccc(/C(=C\c2ccc([N+](=O)[O-])cc2)C(=O)Nc2ccc(S(=O)(=O)F)c(C)c2)c1`: the survivor count (dose: 240.0 mg/kg/injection, schedule: Q01DX005 (ip), vehicle: Klucel (hydroxypropylcellulose) (HPC)) was 6 of 6.

On to `O=C(O)c1cc(Br)cc(SSc2cc(Br)cc(C(=O)O)c2O)c1O`, for which the survivor count is, setting by setting: under setting [4], 4 of 6; under setting [5], 4 of 6.

Regarding `CC(c1ccccc1)n1ccnc1CC#N` (configuration not stated), the survivor count is 0 of 6 (dose: 120.0 mg/kg/injection, schedule: Q01DX005 (ip), vehicle: saline) and 0 of 6 under setting [7].

Take `COc1cc(C[C@H]2c3cc(OC)c(OC)cc3CCN2C)c(Oc2cc3c(cc2OC)-c2c(OC)c(OC)cc4c2[C@H](C3)N(C)CC4)cc1OC`: the survivor count (dose: 160.0 mg/kg/injection, schedule: Q01DX009 (ip), vehicle: distilled water + Tween-80) is recorded as 6 of 6; the survivor count (dose: 320.0 mg/kg/injection, schedule: Q01DX009 (ip), vehicle: distilled water + Tween-80) is 0 of 6; the survivor count (dose: 400.0 mg/kg/injection, schedule: Q04DX003 (ip), vehicle: saline) is 10 of 10.

The record behind these values is PubChem BioAssay AID330 (DTP/NCI, 2004).
